Some of the results follow.
biological target: OsWRKY34 (Oryza sativa, UniProt Q0JBA9 1-250); experiment: protein-binding microarray (RPBM); PBS, 2% BSA, 51.3 ng/ul salmon testes DNA, 50 uM zinc acetate, 200 nM TF, 25 C, 1 h; high values mean tight binding; conditions: protein: recombinant; tags: N-terminal polyhistidine and DsRed monomer fusion (pET32a); label: CyDye5-dUTP incorporated in the synthesized complementary strand; 3' TTTTT single-stranded linker to array surface; dsDNA, one strand shown
Method in brief: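 Polyhistidine-tagged DsRed fusions of transcription factors, joined at the N-terminus, were expressed in E. coli BL21-CodonPlus and isolated on Ni–NTA. They were incubated at 200 nM for 1 h at 25 °C on a custom Agilent array, double-stranded and BSA-blocked, in PBS with 2% BSA, salmon testes DNA and 50 µM zinc acetate. The binding signal is per-feature fluorescence intensity (arbitrary units) read on an Axon 4000B scanner after washing.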

Amino acid sequences for entries named in this document (tags omitted).
UniProt Q0JBA9, entry or part of it: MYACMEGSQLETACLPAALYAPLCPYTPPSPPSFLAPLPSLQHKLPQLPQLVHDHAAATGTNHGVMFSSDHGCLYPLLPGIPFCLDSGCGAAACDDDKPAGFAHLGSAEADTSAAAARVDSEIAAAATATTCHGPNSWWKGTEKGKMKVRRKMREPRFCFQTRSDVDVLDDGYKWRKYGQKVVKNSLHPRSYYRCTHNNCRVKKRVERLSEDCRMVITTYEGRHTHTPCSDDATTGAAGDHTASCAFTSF

| Sequence | binding signal |
| --- | --- |
| ACATCCATTATGACTTCATCAGCCTTCAGCCTTCAAATTTCGGAGTCACCTAGTGCAG | 8540 fluorescence intensity (a.u.) |
| TCCTCCTCGTGCGCTCTCTCTCTCTCTCTCTCACTCGCTCCGGAGTCACCTAGTGCAG | 8050 fluorescence intensity (a.u.) |
| ACTTAACAACGTCCATATACTCCTTTTGTTTTTACAATAACGGAGTCACCTAGTGCAG | 9800 fluorescence intensity (a.u.) |
| AATATTCTTTTGCACTCACCCAACCCACCCACTGATATAACGGAGTCACCTAGTGCAG | 8330 fluorescence intensity (a.u.) |
| GCCTCCTCTGCCGTATTTGCCGCCTTCGGCCACCAACACCCGGAGTCACCTAGTGCAG | 9080 fluorescence intensity (a.u.) |
| ATTTACAATTCACCTTTAGTTTTTAACATTTGTTATTTCACGGAGTCACCTAGTGCAG | 9680 fluorescence intensity (a.u.) |
| TGACTGACGTGGGATGCTTTTGACCAACCTTTGACTGAGGCGGAGTCACCTAGTGCAG | 11200 fluorescence intensity (a.u.) |
| CATGCCCACTGTTCATCTCCAAAATCGATCCCCACACAGTCGGAGTCACCTAGTGCAG | 12600 fluorescence intensity (a.u.) |
| ATACTTAATTAATCATTCGCTAATGGACCACTCTGTTTTCCGGAGTCACCTAGTGCAG | 8430 fluorescence intensity (a.u.) |
| GCTCACTTTCAGTTCGTTCGATCTCGCTTCCATTTCTTCGCGGAGTCACCTAGTGCAG | 10800 fluorescence intensity (a.u.) |
| GTTTGGGATGTCGCGGGGATTTAGGGGCGGTGGGTGGTTTCGGAGTCACCTAGTGCAG | 39300 fluorescence intensity (a.u.) |
| TCCCCTGTTCTCGTACACAAATTCGCAGCGATCTAATAGTCGGAGTCACCTAGTGCAG | 8480 fluorescence intensity (a.u.) |
| CCTTCCACTACTACTGCTCGTGCTCGATCGGCCAACCATGCGGAGTCACCTAGTGCAG | 9400 fluorescence intensity (a.u.) |
| TGGCGGCGGTGGGAGTCAGTTGCGGCTGCTTCGCGGGGTACGGAGTCACCTAGTGCAG | 11300 fluorescence intensity (a.u.) |
| AACTAAATCCCTCGGCAATTTTGACTCCGGTTTTATCCTTCGGAGTCACCTAGTGCAG | 9620 fluorescence intensity (a.u.) |
| ACAACTATGAAATTCATGCCTATCTCGATATCTCCAAGATCGGAGTCACCTAGTGCAG | 8330 fluorescence intensity (a.u.) |
| ACTGACCTTAGCTTAGCTTACCTTAGCTCAACCCCAAGCTCGGAGTCACCTAGTGCAG | 8360 fluorescence intensity (a.u.) |
| CGATGATCAGTGTGATTCAGTGTTTGCTGCTTTTCTTTAACGGAGTCACCTAGTGCAG | 8180 fluorescence intensity (a.u.) |
| AAGTACATCCCTTCGTCTCTTTGCTCCGTGCTGTCCGCCCCGGAGTCACCTAGTGCAG | 10900 fluorescence intensity (a.u.) |
| TCGCCGAGGACACCCATCCCGTCGCTAGCTCGTCGCATCGCGGAGTCACCTAGTGCAG | 8410 fluorescence intensity (a.u.) |
| TCATGTGTTGGTTCTTCGGTTAATCTCCTAGTGGCTCTATCGGAGTCACCTAGTGCAG | 8440 fluorescence intensity (a.u.) |
| TCGAAATTTCAGACATCTACTACTTCTGTGCCATGTCGAACGGAGTCACCTAGTGCAG | 8840 fluorescence intensity (a.u.) |
| CTCCTCTGCGCTGCCGTTCCCCGTTATTCGCCAACGCTTCCGGAGTCACCTAGTGCAG | 10200 fluorescence intensity (a.u.) |
| GCCTCGCGTACGCTCTCCGCTACTACTTCAGTTCTCGCTCCGGAGTCACCTAGTGCAG | 9000 fluorescence intensity (a.u.) |
| ATACTTCAATTGTTGTACTAGTTTTTAGCTTCCTGTTCCACGGAGTCACCTAGTGCAG | 10900 fluorescence intensity (a.u.) |
| AAATTTACTTTAATATGATTATAATTTTATTGCAATAAACCGGAGTCACCTAGTGCAG | 8060 fluorescence intensity (a.u.) |
| TCCTTTTCTCGCCGCTCCTCCTTCCCCGCCCCGCCACCTCCGGAGTCACCTAGTGCAG | 8090 fluorescence intensity (a.u.) |

| Sequence | binding signal |
| --- | --- |
| CATCCAATCCACACATATAGTTACCTCCTTTGCCTTTGGACGGAGTCACCTAGTGCAG | 8150 fluorescence intensity (a.u.) |
| CGGTTGCCATCTTCGTAAATAACCTCAACGACAGGGGTATCGGAGTCACCTAGTGCAG | 8040 fluorescence intensity (a.u.) |
| CTTTTCGTTTGATTAATCACAAGTCACTTTTTATGGTTTTCGGAGTCACCTAGTGCAG | 9800 fluorescence intensity (a.u.) |
| TCTTCATGTATTTCATGCTTTCTTCTTCATGTATTGTTAGCGGAGTCACCTAGTGCAG | 10600 fluorescence intensity (a.u.) |
| CACACGATATGATGTTTCTACCTCTCATTGTCATGTATTCCGGAGTCACCTAGTGCAG | 8920 fluorescence intensity (a.u.) |
| TGCATATCTGTAATTCTACTTCACCTCCAGGTTGTCGTCTCGGAGTCACCTAGTGCAG | 9730 fluorescence intensity (a.u.) |
| CCCGCACACTATTGCAATCCGGAGGTTTTTACCTGTGTTCCGGAGTCACCTAGTGCAG | 8880 fluorescence intensity (a.u.) |
| GTTTATAATTAGTTTTTTTATTAGTGCCCGAACACCTCATCGGAGTCACCTAGTGCAG | 8110 fluorescence intensity (a.u.) |
| TAATTTCCGTCTCCCTTTATCACGTGAGTGAGTCGCGTCTCGGAGTCACCTAGTGCAG | 8700 fluorescence intensity (a.u.) |
| CGACCAGAAAAATATCTCCTCCGCTTTTTGCGCTTTTTTTCGGAGTCACCTAGTGCAG | 9690 fluorescence intensity (a.u.) |
| GTCGCCTCCAAAAGCTTCTCTCATCAGTTTCTCTCACTCCCGGAGTCACCTAGTGCAG | 9470 fluorescence intensity (a.u.) |
| TCGATCGCTGCTGTAAGTTTGTAACATGTGCGTGTCCTGCCGGAGTCACCTAGTGCAG | 12400 fluorescence intensity (a.u.) |
| GTTGATTTTTGAAAAATTAACCTTTTTATGCATCTTTTGTCGGAGTCACCTAGTGCAG | 9510 fluorescence intensity (a.u.) |
| TGTTTGTTACTTTGATTACGCTCTTGTTTTGTTTATGAAACGGAGTCACCTAGTGCAG | 10900 fluorescence intensity (a.u.) |
| CTATTGTTTTATGTGGTTTCTCTCTCATCAATTGGGTTGACGGAGTCACCTAGTGCAG | 8830 fluorescence intensity (a.u.) |
| CCCGAGTCGTCGACCTCTCCTCGTTCCTCACAACCACCGCCGGAGTCACCTAGTGCAG | 11800 fluorescence intensity (a.u.) |
| CCACAGCGCGCACCGGTCTCCGCCTTCAATGCATCATCTTCGGAGTCACCTAGTGCAG | 11700 fluorescence intensity (a.u.) |
| GATTTCTGTGTTTTTCCTGTGGTCCAATCAAACGGTCATTCGGAGTCACCTAGTGCAG | 12700 fluorescence intensity (a.u.) |
| AATACTCCTTTCTTTTTCTGACTTATATTTTGTTACGGTTCGGAGTCACCTAGTGCAG | 13600 fluorescence intensity (a.u.) |
| GCTTCGCCGGCCGCCCCGCACTCGACGTCTTGCTCCGTTCCGGAGTCACCTAGTGCAG | 8550 fluorescence intensity (a.u.) |
| GACGCGTGCTTTTTTTTTTCTGCGTGGTGGTGTTGGTTGACGGAGTCACCTAGTGCAG | 10900 fluorescence intensity (a.u.) |
| ATCCCCGCTTCTGGACGAGTCAAGTTTGGTCAACGTCGGACGGAGTCACCTAGTGCAG | 9190 fluorescence intensity (a.u.) |
| CTCCCGTTCGTCGTCTCCATGCCGCGCGTCCTGCAATCCGCGGAGTCACCTAGTGCAG | 8390 fluorescence intensity (a.u.) |
| AATGAAGATCACCTTTATTCGCCGTTCCAGTCACGGATTCCGGAGTCACCTAGTGCAG | 9190 fluorescence intensity (a.u.) |
| CGTCCACTCCATCTCCGCCTCCAGTGGGTCATCATATCTCCGGAGTCACCTAGTGCAG | 10300 fluorescence intensity (a.u.) |
| TTAGGTAATATTCACCTCGATCGTTTGTATATTTTTGCCTCGGAGTCACCTAGTGCAG | 8360 fluorescence intensity (a.u.) |
| ACCACCCTACCTAGCTTAGAATATTTACCATGCATTCTCTCGGAGTCACCTAGTGCAG | 11100 fluorescence intensity (a.u.) |

Exported bar-delimited: part of the list above.
Sequence | binding signal
AATACTCCTTTCTTTTTCTGACTTATATTTTGTTACGGTTCGGAGTCACCTAGTGCAG | 13600 fluorescence intensity (a.u.)
CGTCCACTCCATCTCCGCCTCCAGTGGGTCATCATATCTCCGGAGTCACCTAGTGCAG | 10300 fluorescence intensity (a.u.)

Reference: article PMC7819943, “Rice protein-binding microarrays: a tool to detect cis-acting elements near promoter regions in rice”
